Experimental data published in PubChem BioAssay AID2685 (National Center for Advancing Translational Sciences (NCATS), 2010).
The list shows a part of the results. The main result of the screen is listed elsewhere. These columns were measured beside it and carry no call. Compounds called inactive in the main read-out are mostly missing here. Potencies come from curve fits of mixed quality, noted in brackets.

Test: qHTS Assay for Lipid Storage Modulators in Drosophila S3 Cells;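 as to cell number change: cells counted by Cell Tracker Red CMTPX staining in the red channel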
Details: BODIPY lipid droplet fluorescence, 18-24 h; for cell number change: measured here: cell count max response, cells fed with added oleic acid
Summary of the method: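 Drosophila S3 cells loaded with oleic acid (400 uM, as added) and compounds at several concentrations; lipid droplets imaged by 488-nm laser-scanning cytometry, 500–530 nm intensity and object ratio to cell channel. Percent activity normalized to 20 uM Triacsin C.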

[1] = measured here: cell number channel AC50, cells fed with added oleic acid
[2] = measured here: lipid fluorescence (Fed channel) AC50, cells fed with added oleic acid

Compound	AC50 [1]	cell number change [%]	AC50 [2]
Cn1ccnc1C(=O)c1cc(SCC(=O)NC2CC2)nc2ccccc12	4.11 µM [rising, single point]		
O=C(NCCO)c1cc2c([nH]c3ccccc32)c(-c2ccc(F)cc2)n1		-11.7	5.17 µM [rising, full curve]
Nn1cc(-c2ccccc2)nc1SCC(=O)NCC1CCCO1 (stereo unspecified)	23.1 µM [rising, single point]	112	
CC(C)Cn1c(NCCO)nc2ccccc21	1.64 µM [falling, full curve]	-38.7	
O=C(CN1CCC(n2nnc3cc(F)ccc32)CC1)Nc1ccc2c(c1)CCC2	2.31 µM [rising, partial curve]		
COc1ccc(NC(=S)N(CCCN2CCOCC2)Cc2cn(C)c3ccccc23)cc1		-0.854	0.58 µM [rising, full curve, poor fit]
CCc1sc(C(=O)N2CCc3cc(OC)c(OC)cc3C2CC(=O)O)cc1C (stereo unspecified)		2.46	2.31 µM [falling, single point]
CC(C)C(=O)NC(=S)Nc1ccc(S(=O)(=O)N2CCCC2)cc1		-9.32	0.517 µM [falling, full curve]
CCC(C)(C)NC(=O)C(c1cccnc1)N(C(=O)c1csnn1)c1ccc(C)cc1 (stereo unspecified)		4.35	
CC(NC(=O)c1ccc(CS(C)(=O)=O)cc1)C1CC2CCC1C2 (stereo unspecified)		7.92	0.103 µM [falling, single point]
Cc1ccc(OCC(=O)NC2CCS(=O)(=O)C2)cc1 (stereo unspecified)	0.731 µM [falling, single point]	-146	0.00517 µM [falling, full curve, poor fit]
CCn1c(SCC(=O)N2CCN(c3ccc(F)cc3)CC2)nnc1-c1ccncc1		3.64	0.0731 µM [falling, full curve, poor fit]
Cc1noc(C)c1S(=O)(=O)NCCCN1CCN(Cc2ccccc2)CC1		-3.64	0.00461 µM [falling, full curve, poor fit]
CN(CCOc1ccc(Cl)cc1)c1ccc(S(=O)(=O)N2CCCCC2)cn1		15.6	0.13 µM [rising, full curve, poor fit]
COc1cccc(NC(=O)CSc2nc3ccccc3c(=O)n2CCCC(=O)NCC2CCCO2)c1 (stereo unspecified)		-19.4	29.1 µM [falling, single point]
CC(=O)Nc1cccc(N2C(=O)CCC2=O)c1	2.91 µM [falling, full curve]	-42.4	6.51 µM [falling, single point]
O=C(NCc1nnnn1-c1ccc(F)cc1)C1CC(=O)N(c2ccc(F)cc2)C1 (stereo unspecified)		27.8	
O=C(NNc1nc2c(F)cc(F)cc2s1)C1COc2ccccc2O1 (stereo unspecified)	6.51 µM [rising, partial curve, poor fit]	-10.6	
COc1ccc(Cl)cc1NC(=O)CN(C)C(=O)CCNC(=O)c1ccccc1OC	0.517 µM [rising, full curve, poor fit]	-7.57	3.66 µM [falling, full curve, poor fit]
O=C(O)c1ccccc1C(=O)Nc1ccccn1	23.1 µM [falling, partial curve]	-204	20.6 µM [falling, partial curve]

Compound	AC50 [1]	cell number change [%]	AC50 [2]
COCCNC(=S)Nc1ccccc1Cc1ccccc1		20.1	29.1 µM [rising, single point]
COc1ccc(S(=O)(=O)Cc2ccc(C(=O)N3CCc4ccccc4C3)o2)cc1		12.7	2.06 µM [rising, full curve, poor fit]
Cc1ccc(N2C(=O)C3NN=C(C(=O)OCc4ccccc4)C3C2=O)c(C)c1 (stereo unspecified)		-6.11	0.0259 µM [falling, full curve, poor fit]
Cc1ccc(N=Nc2c(N)nn(-c3ccccc3)c2N)cc1	0.259 µM [falling, full curve, poor fit]	-23.3	11.6 µM [falling, partial curve, poor fit]
CCCOc1ccc(-c2nnc(-c3ccncc3)o2)cc1		-13.5	
CC(=O)c1ccc(-n2nnnc2SCC(=O)Nc2cccc(NC(=O)c3ccco3)c2)cc1		-28.6	29.1 µM [falling, single point]
CCN(CC)CCCNC(=O)Cn1ncc2c(=O)oc3ccc(C)cc3c21		9.02	29.1 µM [falling, single point]
CCCCCCCCOC(=O)c1ccc(N)cc1		-28.2	16.4 µM [falling, partial curve]
COc1ccc(NS(=O)(=O)c2cc(NC(=O)/C=C/c3cc(OC)c(OC)c(OC)c3)ccc2N2CCCCC2)cc1		3.85	1.84 µM [rising, partial curve]
Cc1ccc(C(=O)N/C(=C\c2ccc3c(c2)OCO3)C(=O)Nc2ccc(C(=O)O)cc2)cc1		18	
CCOC(=O)C(NC(=O)NC1CCCCC1)(c1ccccc1)C(F)(F)F (stereo unspecified)			29.1 µM [falling, single point]
S=c1[nH]nc(Cc2ccccc2)n1-c1ccc(Cl)cc1		-7.69	1.3 µM [falling, full curve]
COc1ccc(-n2nc3c(c2NC(=O)C2CC2)CS(=O)C3)cc1 (stereo unspecified)		1.29	29.1 µM [falling, single point]
CCC(C(=O)NCCCN(CC)Cc1ccccc1)n1nc(C)c2sc3ccccc3c2c1=O (stereo unspecified)	0.731 µM [rising, partial curve, poor fit]	46.8	6.51 µM [rising, single point]
O=C(c1cc(-c2ccc3c(c2)OCO3)on1)N1CCCCC1		24.2	1.16 µM [rising, single point]
COc1ccccc1OC(C)C(=O)N1CCN(Cc2ccc3c(c2)OCO3)CC1 (stereo unspecified)		4.7	20.6 µM [rising, partial curve]
CCOC(=O)C(=N/O)/C(C)=N/NC(=O)C(=O)Nc1cc(Cl)ccc1Cl		-22.5	
N#CC(CC(=O)c1ccc(F)cc1)c1ccc2c(c1)OCO2 (stereo unspecified)		16.3	0.0651 µM [falling, full curve, poor fit]
Cc1ccc(S(=O)(=O)Nc2ccc(S(=O)(=O)NC(C)(C)C)cc2)cc1		6.42	6.51 µM [rising, single point]
COc1ccc(/C=C(/NC(=O)c2ccc([N+](=O)[O-])cc2)C(=O)NCCCN(C)C)cc1		14.6	23.1 µM [rising, single point]

For convenience, some entries already given.
Compound	AC50 [1]	cell number change [%]	AC50 [2]
COc1ccc(-n2nc3c(c2NC(=O)C2CC2)CS(=O)C3)cc1 (stereo unspecified)		1.29	29.1 µM [falling, single point]
CCC(C(=O)NCCCN(CC)Cc1ccccc1)n1nc(C)c2sc3ccccc3c2c1=O (stereo unspecified)	0.731 µM [rising, partial curve, poor fit]	46.8	6.51 µM [rising, single point]
O=C(c1cc(-c2ccc3c(c2)OCO3)on1)N1CCCCC1		24.2	1.16 µM [rising, single point]

Further entries follow.

Compound	AC50 [1]	cell number change [%]	AC50 [2]
COc1ccc(N2CC(C(=O)Nc3ccc(N4CCOCC4)cc3)CC2=O)cc1 (stereo unspecified)	5.8 µM [rising, full curve, poor fit]	32.7	
CCO/C(C)=C1\C(=O)N(CC)c2ccccc21		-5.59	
Cc1cc(C)n2nc(SC(C)C(=O)NC3CCCCC3C)nc2n1 (stereo unspecified)		-13	20.6 µM [falling, single point]
S=C(NCC1COc2ccccc2O1)Nc1ccc(Br)cc1 (stereo unspecified)	29.1 µM [falling, single point]	-32	23.1 µM [falling, partial curve]
CCCNC(=O)c1ccccc1C(=O)NC1(C(=O)NCCC)CCCC1		-21.9	
O=C1OC(Nc2ccc3ncccc3c2)c2ccccc21 (stereo unspecified)			6.51 µM [rising, single point]
Cc1cccc(N2C(=O)CC(Sc3nnc(C)s3)C2=O)c1 (stereo unspecified)	29.1 µM [falling, single point]	-71	29.1 µM [falling, single point]
CC/C(=N\OC(=O)c1ccc(OC(C)C)cc1)c1ccc(C)cc1	29.1 µM [falling, single point]	-74	
CCN1C(=O)/C(=C/C=C2\N(CC)c3cc(S(=O)(=O)N(C)C)ccc3N2c2ccccc2)SC1=S	10.3 µM [falling, partial curve]	-89.2	0.517 µM [falling, full curve]
C[C@H](N)c1nnc(SCC(=O)c2ccc(Cl)cc2)o1		9.91	18.4 µM [falling, partial curve]
O=C(Cc1ccc(Cl)cc1)Nc1cc(S(=O)(=O)N2CCOCC2)ccc1N1CCCC1		-1.64	0.731 µM [rising, single point]
CC1CC(C)CN(C(=O)COC(=O)/C=C/c2cccc([N+](=O)[O-])c2)C1 (stereo unspecified)		-3.21	
CC(=O)C1=C(c2ccccc2)OC(N)=C(C#N)C1c1ccc(O)cc1 (stereo unspecified)		-1.6	0.058 µM [rising, full curve, poor fit]
CCc1ccc(CN2CCN(c3ncccn3)CC2)cc1		1.82	
CN1/C(=C/C(=O)c2nc(S(C)(=O)=O)ncc2Cl)C(C)(C)c2ccccc21	14.6 µM [falling, partial curve]	-88.4	29.1 µM [falling, partial curve]
Cc1nnc(SCCn2c(N3CCCC(C)C3)nc3c2c(=O)n(C)c(=O)n3C)s1 (stereo unspecified)		14.3	
COc1ccc(C2c3ccc4ccccc4c3Oc3ncn(CCN4CCOCC4)c(=N)c32)cc1OC (stereo unspecified)		-23.8	0.411 µM [falling, single point]
COc1ccc(CNC(=O)C2CC(c3ccc(F)cc3)=NO2)cc1 (stereo unspecified)	1.3 µM [falling, full curve]	0.959	6.51 µM [falling, partial curve, poor fit]
COc1cc(OC)c(NC(=O)CN(C)S(=O)(=O)c2ccc3[nH]c(=O)oc3c2)cc1Cl		-3.54	
CSCCC(NC(=O)c1ccccc1)C(=O)N1CC(C)OC(C)C1 (stereo unspecified)		20.5	20.6 µM [rising, single point]
